From the supplement of paper PMC8728848
The list shows a part of the results.

How the values were obtained:
Assay in all cases: glycan array binding signal (z-score within array); higher = stronger binding
Details in all cases: glycan notation: IUPAC condensed, linker removed
[1] = biological target: Fuc(a1-2)Gal
Procedure, shortened: (§1)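 The binding signal is a Z-score computed within each array and averaged over linkers. Arrays of the same protein sequence at different concentrations or buffers were also averaged together. Data originate from 3228 arrays in the Consortium for Functional Glycomics database, kept only where the protein sequence was available.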

[2] = biological target: Fuc(a1-2)Gal(b1-3)GalNAc
Procedure, shortened: as §1

[3] = biological target: Fuc(a1-2)Gal(b1-3)GalNAc(a1-3)[Fuc(a1-2)]Gal(b1-4)Glc
Procedure, shortened: as §1

[4] = biological target: Fuc(a1-2)Gal(b1-3)GalNAc(a1-3)[Fuc(a1-2)]Gal(b1-4)GlcNAc
Procedure, shortened: as §1

[5] = biological target: Fuc(a1-2)Gal(b1-3)GalNAc(b1-3)Gal
Procedure, shortened: as §1

[6] = biological target: Fuc(a1-2)Gal(b1-3)GalNAc(b1-3)Gal(a1-4)Gal(b1-4)Glc
Procedure, shortened: as §1

[7] = biological target: Fuc(a1-2)Gal(b1-3)GalNAc(b1-4)[Neu5Ac(a2-3)]Gal(b1-4)Glc
Procedure, shortened: as §1

[8] = biological target: Fuc(a1-2)Gal(b1-3)GlcNAc
Procedure, shortened: as §1

[9] = biological target: Fuc(a1-2)Gal(b1-3)GlcNAc(b1-2)Man(a1-3)[Fuc(a1-2)Gal(b1-3)GlcNAc(b1-2)Man(a1-6)]Man(b1-4)GlcNAc(b1-4)GlcNAc
Procedure, shortened: as §1

[10] = biological target: Fuc(a1-2)Gal(b1-3)GlcNAc(b1-2)Man(a1-3)[Fuc(a1-2)Gal(b1-3)GlcNAc(b1-2)Man(a1-6)]Man(b1-4)GlcNAc(b1-4)[Fuc(a1-6)]GlcNAc
Procedure, shortened: as §1

[11] = biological target: Fuc(a1-2)Gal(b1-3)GlcNAc(b1-3)Gal(b1-4)Glc
Procedure, shortened: as §1

[12] = biological target: Fuc(a1-2)Gal(b1-3)GlcNAc(b1-3)GalNAc
Procedure, shortened: as §1

[13] = biological target: Fuc(a1-2)Gal(b1-3)GlcNAc(b1-3)[Fuc(a1-2)Gal(b1-3)GlcNAc(b1-6)]GalNAc
Procedure, shortened: as §1

[14] = biological target: Fuc(a1-2)Gal(b1-3)GlcNAc(b1-3)[Gal(b1-4)GlcNAc(b1-6)]Gal(b1-4)Glc
Procedure, shortened: as §1

[15] = biological target: Fuc(a1-2)Gal(b1-3)GlcNAc(b1-3)[Neu5Ac(a2-6)Gal(b1-4)GlcNAc(b1-6)]Gal(b1-4)Glc
Procedure, shortened: as §1

[16] = biological target: Fuc(a1-2)Gal(b1-3)GlcNAc6S
Procedure, shortened: as §1

[17] = biological target: Fuc(a1-2)Gal(b1-3)[Fuc(a1-4)]GlcNAc
Procedure, shortened: as §1

[18] = biological target: Fuc(a1-2)Gal(b1-3)[Fuc(a1-4)]GlcNAc(b1-2)Man(a1-3)[Fuc(a1-2)Gal(b1-3)[Fuc(a1-4)]GlcNAc(b1-2)Man(a1-3)]Man(b1-4)GlcNAc(b1-4)GlcNAc
Procedure, shortened: as §1

[19] = biological target: Fuc(a1-2)Gal(b1-3)[Fuc(a1-4)]GlcNAc(b1-2)Man(a1-3)[Fuc(a1-2)Gal(b1-3)[Fuc(a1-4)]GlcNAc(b1-2)Man(a1-6)]Man(b1-4)GlcNAc(b1-4)[Fuc(a1-6)]GlcNAc(b1-4)[Fuc(a1-6)]GlcNAc
Procedure, shortened: as §1

[20] = biological target: Fuc(a1-2)Gal(b1-3)[Fuc(a1-4)]GlcNAc(b1-3)[Fuc(a1-3)[Gal(b1-4)]GlcNAc(b1-6)]Gal(b1-4)Glc
Procedure, shortened: as §1

[21] = biological target: Fuc(a1-2)Gal(b1-3)[Fuc(a1-4)]GlcNAc(b1-3)[Gal(b1-4)GlcNAc(b1-6)]Gal(b1-4)Glc
Procedure, shortened: as §1

[22] = biological target: Fuc(a1-2)Gal(b1-4)Glc
Procedure, shortened: as §1

[23] = biological target: Fuc(a1-2)Gal(b1-4)Glc6S
Procedure, shortened: as §1

[24] = biological target: Fuc(a1-2)Gal(b1-4)GlcNAc
Procedure, shortened: as §1

[25] = biological target: Fuc(a1-2)Gal(b1-4)GlcNAc(b1-2)Man
Procedure, shortened: as §1

[26] = biological target: Fuc(a1-2)Gal(b1-4)GlcNAc(b1-2)Man(a1-3)[Fuc(a1-2)Gal(b1-4)GlcNAc(b1-2)Man(a1-6)]Man(b1-4)GlcNAc(b1-4)GlcNAc
Procedure, shortened: as §1

[27] = biological target: Fuc(a1-2)Gal(b1-4)GlcNAc(b1-2)Man(a1-3)[Fuc(a1-2)Gal(b1-4)GlcNAc(b1-2)Man(a1-6)]Man(b1-4)GlcNAc(b1-4)[Fuc(a1-6)]GlcNAc
Procedure, shortened: as §1

[28] = biological target: Fuc(a1-2)Gal(b1-4)GlcNAc(b1-2)[Fuc(a1-2)Gal(b1-4)GlcNAc(b1-4)]Man(a1-3)[Fuc(a1-2)Gal(b1-4)GlcNAc(b1-2)Man(a1-6)]Man(b1-4)GlcNAc(b1-4)GlcNAc
Procedure, shortened: as §1

[29] = biological target: Fuc(a1-2)Gal(b1-4)GlcNAc(b1-3)Gal(b1-4)GlcNAc
Procedure, shortened: as §1

[30] = biological target: Fuc(a1-2)Gal(b1-4)GlcNAc(b1-3)Gal(b1-4)GlcNAc(b1-2)Man(a1-3)[Fuc(a1-2)Gal(b1-4)GlcNAc(b1-3)Gal(b1-4)GlcNAc(b1-2)Man(a1-6)]Man(b1-4)GlcNAc(b1-4)GlcNAc
Procedure, shortened: as §1

B1: Blon2355mut (Bifidobacterium longum) (protein)
chain: MVQEPTLEWHVIPEPTNVEPLVGTCSLPLSGTVVEQRGADDAEAVFARQLVDDIKRVCGGRWQVASGEVQREVTLRTSPSLDDWSYVLEVSPDGVVITGSGFEGVRDGVQTLRQIIRQIGLTIPCMVIRDRPAFSTRGYYLDVTRGRVPSMAWLKSWVDRLCFYKYNQFQLYIEHTFQFNGLSEVWRGADPLTSSDILELDSYCAARGIELVPSVSTFGHHYTALRTRQLRDLGEFPEDADRPFSLIERMTHHTLNITDERSYEFSTSLIDELMPLFRSRKFNICANETFDLGKGRSKQESAKRGVGAMYADFVERLCRHVDDRGHDVMVWADVALEHPEIIDTLPKNITWLNWQYEPNVDDGTTAALADAGATQMVCPAVWCWNALIPRIDDAWNNITRMARHGRAHDVSGMLVTDWGDFGHVNDPRMSVPGMIFGAQQSWNPDAELSEVDMLSRISTIEYGDHTGSVVGALRGASAKGGFSWSDLVTYLELDDGRGGCNTEIVRVMGCLEAYRNDLPQSGQARLADARVSMLRTLRDSILAGRELNGKLDDAAKDITQLLRVAGDPSSAAVWSLAIDGQRLLNRVGLALLAAHGVVRQDEAGIDAAKLADELECWTEQYSRLWHEVSRQSELARIQHVVWRAADVLRSI
Q: Which “glycan array binding signal (z-score)” value [1] does the source give for B1 here?
A: The value was -0.707.

Q: What about the “glycan array binding signal (z-score)” value [2] of the same binder?
A: Its value is 0.083.

Q: And the “glycan array binding signal (z-score)” value [3]?
A: Its value is -0.486.

Q: And the “glycan array binding signal (z-score)” value [4]?
A: The value was 0.861.

Q: What about the “glycan array binding signal (z-score)” value [5] of the same binder?
A: Its value is 4.04.

Q: What about the “glycan array binding signal (z-score)” value [6] of the same binder?
A: Its value is 0.339.

Q: What about the “glycan array binding signal (z-score)” value [7] of the same binder?
A: Its value is 0.389.

Q: And the “glycan array binding signal (z-score)” value [8]?
A: Its value is -0.006.

Q: What about the “glycan array binding signal (z-score)” value [9] of the same binder?
A: The value was 2.69.

Q: And the “glycan array binding signal (z-score)” value [10]?
A: The value was -0.681.

Q: What about the “glycan array binding signal (z-score)” value [11] of the same binder?
A: The value was -0.619.

Q: What about the “glycan array binding signal (z-score)” value [12] of the same binder?
A: The value was -0.596.

Q: And the “glycan array binding signal (z-score)” value [13]?
A: Its value is 1.74.

Q: And the “glycan array binding signal (z-score)” value [14]?
A: Its value is -1.38.

Q: And the “glycan array binding signal (z-score)” value [15]?
A: Its value is -0.64.

Q: What about the “glycan array binding signal (z-score)” value [16] of the same binder?
A: Its value is -0.357.

Q: And the “glycan array binding signal (z-score)” value [17]?
A: The value was 0.165.

Q: And the “glycan array binding signal (z-score)” value [18]?
A: The value was -0.498.

Q: And the “glycan array binding signal (z-score)” value [19]?
A: Its value is -0.505.

Q: What about the “glycan array binding signal (z-score)” value [20] of the same binder?
A: Its value is -1.14.

Q: And the “glycan array binding signal (z-score)” value [21]?
A: Its value is -0.739.

Q: What about the “glycan array binding signal (z-score)” value [22] of the same binder?
A: The value was 0.628.

Q: And the “glycan array binding signal (z-score)” value [23]?
A: The value was 1.13.

Q: And the “glycan array binding signal (z-score)” value [24]?
A: Its value is 0.12.

Q: What about the “glycan array binding signal (z-score)” value [25] of the same binder?
A: Its value is -0.511.

Q: And the “glycan array binding signal (z-score)” value [26]?
A: The value was -1.28.

Q: What about the “glycan array binding signal (z-score)” value [27] of the same binder?
A: The value was 0.088.

Q: And the “glycan array binding signal (z-score)” value [28]?
A: Its value is -0.562.

Q: What about the “glycan array binding signal (z-score)” value [29] of the same binder?
A: Its value is 0.464.

Q: What about the “glycan array binding signal (z-score)” value [30] of the same binder?
A: Its value is 0.87.
